Results are given in words; binding and its absence hold for the method and conditions named. Some results given as binding are weak or reduced against the parent protein; the word gives no strength.
Target: human epidermal growth factor receptor (human (endogenous in melanoma cells CRL-1872)) (UniProt P00533)
Assay: ligand binding assay on fixed cells (biotinylated ligand, NeutrAvidin-HRP, ABTS, absorbance at 405 nm); formalin-fixed human melanoma cells in a 96-well plate; biotinylated peptide at 10, 50 and 500 nM in MEM with 0.1% BSA and 200 mM HEPES, 37 °C, 1 h; washes with cold PBS and 0.3 M NaCl; triplicates; only the binder purified

binding: binds
Binder: NINECFSSPCENQGICQDEIDGYNCVCQPGFTGTHCESSMLNHVI (biotin (conjugated with NHS-biotin; sites not stated)) [Sh-EGFl-1 peptide (epidermal growth factor-like peptide from Stichopus horrens)]
